No constants are given. Whether binding was seen depends on the method and setting. Binding seen in cells or lysates may run through a third protein. Binding can be weak; no strength is given.
Target: AMP-activated protein kinase (AMPK) (mouse (endogenous in liver and primary hepatocytes))
Experiment: co-IP; endogenous IP: WT and PTGLKO liver and hepatocyte lysates incubated with AMPKα primary antibody overnight at 4°C, then magnetic protein A/G beads 2 hours at room temperature; washed 3 times; blots

B1: LKB1 (enzyme, UniProt Q9WTK7 1-436)
chain: MDVADPEPLGLFSEGELMSVGMDTFIHRIDSTEVIYQPRRKRAKLIGKYLMGDLLGEGSYGKVKEVLDSETLCRRAVKILKKKKLRRIPNGEANVKKEIQLLRRLRHRNVIQLVDVLYNEEKQKMYMVMEYCVCGMQEMLDSVPEKRFPVCQAHGYFRQLIDGLEYLHSQGIVHKDIKPGNLLLTTNGTLKISDLGVAEALHPFAVDDTCRTSQGSPAFQPPEIANGLDTFSGFKVDIWSAGVTLYNITTGLYPFEGDNIYKLFENIGRGDFTIPCDCGPPLSDLLRGMLEYEPAKRFSIRQIRQHSWFRKKHPLAEALVPIPPSPDTKDRWRSMTVVPYLEDLHGRAEEEEEEDLFDIEDGIIYTQDFTVPGQVLEEEVGQNGQSHSLPKAVCVNGTEPQLSSKVKPEGRPGTANPARKVCSSNKIRRLSACKQQ
  binding: binds
